Out of some 6,900 compounds screened, fewer than 10 were called active. Calls come from the whole dose curve; as a rule, active = well fitted curve in the direction sought with a large enough effect; inconclusive = small, poorly fitted or top-dose-only effect, or another doubt; inactive = no such curve, though single readings can be large or run the other way. Some of the results follow.
molecular target: Metallo-beta-lactamase type 2 (Klebsiella pneumoniae) (UniProt C7C422); experiment: qHTS to identify inhibitors of the New Delhi Metallo-beta-lactamase (NDM): primary screen against the NCATS Gemini Collection; details: NDM-1 enzyme, meropenem hydrolysis, absorbance 300 nm; at 38.4 µM (top of the series) unless noted; note: % of control where 0% means no effect
How it was run: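 Meropenem hydrolysis (50 uM final) by 2 nM NDM-1 read as 300 nm absorbance after 30 min, following >30 min compound–enzyme preincubation in HEPES pH 7.0 with 1 uM ZnSO4 and 0.01% Tween20.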

Chains of the proteins cited; added tags and fusions are not shown. Lines headed by an entry give the natural chain unless they say otherwise; changes in a name come on top.
UniProt C7C422: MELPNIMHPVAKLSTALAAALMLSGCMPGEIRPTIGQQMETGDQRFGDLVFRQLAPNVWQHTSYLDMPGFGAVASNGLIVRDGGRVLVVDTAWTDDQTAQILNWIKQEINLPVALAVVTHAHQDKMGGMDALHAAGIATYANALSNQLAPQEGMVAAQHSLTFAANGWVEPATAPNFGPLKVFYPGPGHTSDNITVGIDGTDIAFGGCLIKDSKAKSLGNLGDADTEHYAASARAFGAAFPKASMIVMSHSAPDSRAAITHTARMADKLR

Structure (SMILES) | activity % (negative = inhibition)
CC(=O)N1CCC2(C1)N=C(c1cccnc1)C(=O)N2 (centres undefined) | inactive: 2.36% [at 57.5 µM]
CC(C)C1=NOC2(CCCN(Cc3ccccn3)C2)C1 (centres undefined) | inactive: 2.29% [at 57.5 µM]
C=C[C@H]1CN2CC[C@H]1C[C@@H]2CNC(=O)Nc1ccc(Br)cc1 | inactive: 6.61% [at 57.5 µM]
O=C1N(Cc2cccnc2)C[C@H]2CN(C3CCC3)CCN12 | inactive: -2.04% [at 77.1 µM]
Cn1nc(C2CCCC2)cc1[C@H]1CN2CC[C@H]1C[C@@H]2CNC(=O)c1cccs1 | inactive: 15.2% [at 57.5 µM]
COc1ccc(S(=O)(=O)N2C[C@@H]3C[C@H](C2)c2c(-c4cccs4)ccc(=O)n2C3)cc1 | inactive: 3.88%
CCCn1cc(C(=O)NC(C(=O)O)c2ccccc2C(F)(F)F)c(C)n1 (centres undefined) | inactive: 2.92%
O=C(Nc1ccc2n(c1=O)C[C@H]1C[C@@H]2CN(c2ncccn2)C1)c1ccccc1 | inactive: 10.8% [at 57.5 µM]
CCCSc1ncc(CN2CC[C@H]3CNC[C@H]32)cn1 | inactive: 15.9%
O=C(NC1CCCCC1)OC[C@H]1C[C@@H]2CCN1C[C@@H]2c1cc(C2CCCC2)nc(-c2ccncc2)n1 | inactive: 96.4%
COCC1CN(C)CC12CCN(C(=O)c1cncc(C)c1)CC2 (centres undefined) | inactive: -5.18%
NC(=O)c1ccc(-c2cccc3c2CCNC3)s1 | inactive: 3.49%
COc1cc2c(cc1CCc1ccccc1)N(C(=O)C(C)C)CC21CCN(C(C)=O)CC1 | inactive: 8.68% [at 57.5 µM]
Cc1nc(-c2ccco2)cc([C@H]2CN3CC[C@H]2C[C@@H]3CNS(C)(=O)=O)n1 | inactive: 22% [at 57.5 µM]
COc1ccccc1-n1cc(C2=CCN(CCOCCO)CC2)cn1 | inactive: 8.21%
CS(=O)(=O)N1C[C@H]2CCN(Cc3ccc[nH]3)C[C@H]21 | inactive: 29.3%
O=C1Nc2ccccc2CC12CCN(Cc1cccnc1)C2 (centres undefined) | inactive: -9.58% [at 57.5 µM]
CCc1cnc(N2CCC3(CC2)C(=O)Nc2cc(OCC4CC4)c(OC)cc23)nc1 | inactive: 8.59% [at 57.5 µM]
COc1cc2c(cc1OCC1CCCC1)N([S+](=O)([O-])c1ccc(Oc3ccccc3)cc1)CC21CCN(CC(=O)O)CC1 | inactive: 11%
O=C(O)C1=NOC2CN(CC3CCCCC3)CC12 (centres undefined) | inactive: -9.19% [at 57.5 µM]

Structure (SMILES) | activity % (negative = inhibition)
CCn1ccc(C(=O)N2[C@H]3CC[C@@H]2c2cnc(C)nc2C3)n1 | inactive: -1.49%
CCCN1CCN(C(=O)Cc2cccn2-c2ccc(F)cc2)CC1 | inactive: 13.5%
C#C[C@H]1CN2CC[C@H]1C[C@@H]2CNS(=O)(=O)CCC | inactive: 3.97% [at 77.1 µM]
CC(=O)c1cccc(NC(=O)OC[C@H]2C[C@@H]3CCN2C[C@@H]3c2cc(C3CCCC3)nc(C)n2)c1 | inactive: -1.82%
CCn1c(CO)nnc1C1CC(NC(=O)c2cnn(Cc3ccccc3)c2)C1 (centres undefined) | inactive: 0.618%
CS(=O)(=O)NC[C@H]1C[C@@H]2CCN1C[C@@H]2CN1CCc2ccccc2C1 | inactive: 2.32% [at 57.5 µM]
O=C(c1ccccc1)N1C[C@@H](c2ccc3c(c2)OCO3)[C@@H]2[C@H]1C1CCN2CC1 | inactive: 4.79%
NC(=O)c1ccc(N2CC3CCC(C2)N3CC(F)(F)F)nn1 | inactive: 32.7%
Cn1cccc1C(=O)C(=O)N1C[C@H](c2cc(F)cc(F)c2)[C@@H]2[C@H]1C1CCN2CC1 | inactive: -2.68%
COc1ccc(C(=O)N2C[C@@H]3C[C@H](C2)c2ccc(NC(=O)CN(C)C)c(=O)n2C3)cc1 | inactive: 35% [at 57.5 µM]
CN1CCN([C@H]2[C@@H]3OC[C@@H](O3)[C@@H](NCc3ccccn3)[C@@H]2O)CC1 | inactive: 1.8% [at 57.5 µM]
CN(C)c1nc2c(c(N3C[C@H]4CNC[C@@]4(C(=O)O)C3)n1)CCCC2 | inactive: 24.6%
COc1ccccc1CC(=O)N1CCN(C2CCN(C)C2=O)CC1 (centres undefined) | inactive: -2.04%
Cc1ccc([C@H]2CN(C(=O)CN3C(=O)CNC3=O)[C@@H]3C4CCN(CC4)[C@H]23)cc1 | inactive: 1.79%
CC(C)N1CC2CCC(C1)N2S(=O)(=O)C1CC1 | inactive: 8.08% [at 57.5 µM]
Cc1nc(-c2ccccc2)cc([C@H]2CN3CC[C@H]2C[C@@H]3CNS(C)(=O)=O)n1 | inactive: 1.31% [at 57.5 µM]
O=C(Nc1ccc(=O)n2c1[C@@H]1C[C@@H](CN(C(=O)NC3CCCCC3)C1)C2)c1ccco1 | inactive: 6.25% [at 57.5 µM]
COc1ccc([C@@H]2CN(C(=O)Cc3nonc3C)[C@@H]3C4CCN(CC4)[C@@H]32)cc1 | inactive: -1.27%
N#Cc1ccccc1S(=O)(=O)N1C[C@@H]2C[C@H](C1)c1ccc(-c3ccc(Cl)cc3)c(=O)n1C2 | inactive: 8.06%

Some values from the list:
Entry for COc1ccccc1-n1cc(C2=CCN(CCOCCO)CC2)cn1 under activity % (negative = inhibition): inactive: 8.21%
Entry for CCCSc1ncc(CN2CC[C@H]3CNC[C@H]32)cn1 under activity % (negative = inhibition): inactive: 15.9%
Entry for O=C(c1ccccc1)N1C[C@@H](c2ccc3c(c2)OCO3)[C@@H]2[C@H]1C1CCN2CC1 under activity % (negative = inhibition): inactive: 4.79%
